Results taken from patent US20090305954A1 (Yeda Research and Development Co. Ltd., priority 2005, published 2009).

Assay: general procedure: Boc solid-phase peptide synthesis; 4-methyl benzhydrylamine resin (BHA)
Conditions: whole synthesis, analytical HPLC, scale of the general procedure 0.05 meq

Substance	final HPLC purity
H-LK[dL]LH[dK]L[dL][dK]HLL[dK]LL-NH2 (SMILES CC(C)C[C@H](NC(=O)[C@H](CC(C)C)NC(=O)[C@@H](CCCCN)NC(=O)[C@H](CC(C)C)NC(=O)[C@H](CC(C)C)NC(=O)[C@H](Cc1c[nH]cn1)NC(=O)[C@@H](CCCCN)NC(=O)[C@@H](CC(C)C)NC(=O)[C@H](CC(C)C)NC(=O)[C@@H](CCCCN)NC(=O)[C@H](Cc1c[nH]cn1)NC(=O)[C@H](CC(C)C)NC(=O)[C@@H](CC(C)C)NC(=O)[C@H](CCCCN)NC(=O)[C@@H](N)CC(C)C)C(N)=O)	≧98%
H-LK[dL]LK[dK]L[dL][dK]KLL[dK]LL-NH2	≧99%

Square brackets hold non-standard residues; d marks the D form.
